Data taken from PubChem BioAssay AID504467 (National Center for Advancing Translational Sciences (NCATS), 2011).
Among all 330,000 compounds or so, about 7,700 (2.3%) were called active. The inconclusive results got no clear call from the source; some entries with a clear call stand among them for comparison. Calls follow the shape of the dose curve; as a rule, active = well fitted inhibition curve with a large enough effect; inconclusive = small, poorly fitted or top-dose-only effect, or effect the other way; inactive = flat fitted curve, though single readings scatter. Potencies of inconclusive entries are doubtful fits and often do not repeat.

Assay: qHTS screen for small molecules that inhibit ELG1-dependent DNA repair in human embryonic kidney (HEK293T) cells expressing luciferase-tagged ELG1; also: nearly all actives have a fitted effect of over 55% in size
Conditions: HEK293T ELG1-luciferase reporter, luminescence, 16 h, DNA damage induced by 5-fluorouridine; series mostly up to 46.1 µM
Method in brief: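 Luminescence from the luciferase reporter, measured 30 min after ONE-Glo reagent at room temperature, was the read-out. Beforehand, 2,000 cells per well were exposed for 16 hr at 37 °C to 5-fluorouridine together with compound or vehicle.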
Potency is read from the fitted curve at half-maximal effect.

| Structure (SMILES) | Potency |
| --- | --- |
| COc1ccc(C2=NN(C(=O)CCC(=O)O)C(c3ccc(Br)cc3)C2)cc1 (configuration not stated) | inactive |
| COC(=O)c1ccc(-c2nc3ccc(C)cc3o2)cc1 | inconclusive: 0.411 µM [activator, full curve, poor fit] |
| COc1ccc2nc(SCC(=O)/C(C#N)=C(\C)N)[nH]c2c1 | inconclusive: 7.31 µM [activator, partial curve] |
| O=C(CCCN1C(=O)/C(=C/c2cccs2)SC1=S)NNC(=O)c1ccc(F)cc1 | inactive |
| CC1CCN(C(=O)/C(=C\c2cccs2)NC(=O)c2ccccc2)CC1 | inactive |
| C/C(CC(=O)Nc1ccc(Cl)c(C(F)(F)F)c1)=N\NC(=O)c1cnccn1 | inactive |
| C=CCNc1nc2c(c(=O)[nH]c(=O)n2C)n1CCCCC | inconclusive: 3.55 µM [activator, partial curve, poor fit] |
| Cc1cc2nncn2c2ccccc12 | inconclusive: 16.4 µM [activator, single point] |
| CCn1cc(Cl)c(C(=O)Nc2nccs2)n1 | inconclusive: 18.3 µM [activator, partial curve] |
| COc1ccc(CNc2ccc3c(c2)CCC3)cc1OC | inconclusive: 16.4 µM [activator, single point] |
| COc1ccc(NC(=O)c2ccccc2)cc1 | inconclusive: 5.8 µM [activator, partial curve] |
| CCc1cccc(C)c1NC(=O)C1C2CCC(O2)C1C(=O)O (configuration not stated) | inactive |
| COc1ccccc1/C=C\C=N\n1c(-c2ccc(Cl)cc2)n[nH]c1=S | inactive |
| c1ccc(COc2ccc(OCCCCN3CCCC3)cc2)cc1 | inconclusive: 4.11 µM [activator, full curve] |
| O=C1NC2(CCCC2)N=C1c1ccc(Cl)cc1 | inconclusive: 16.4 µM [activator, partial curve, poor fit] |
| CCNC(=S)N(Cc1cc2cc(C)ccc2[nH]c1=O)C1CCCC1 | inconclusive: 16.4 µM [activator, single point] |
| CCN(CC)C(=O)CSc1nc2ccsc2c(=O)n1CCCC(=O)NCCc1ccc(S(N)(=O)=O)cc1 | inactive |
| O=C(CSc1nnc(Nc2ccccc2F)s1)NC1CCCC1 | inconclusive: 18.3 µM [activator, partial curve] |
| CCN1CCN(c2nc(-c3ccccc3)nc3ccccc23)CC1 | inactive |
| Cc1oc(-c2cccc(Cl)c2)nc1CN1CCC(C(=O)NCCCN2CCCC2=O)CC1 | inactive |
| OC[C@@H]1[C@@H](c2ccccc2)C(c2ccc(F)cc2)=NN1c1ccccc1 | inactive |
| O=C(CCC(=O)c1ccc(F)cc1)Nc1ccccc1Cl | inconclusive: 18.4 µM [activator, partial curve, poor fit] |

4 structures already listed, ordered by count of non-hydrogen atoms, ascending.

| Structure (SMILES) | Potency |
| --- | --- |
| COc1ccc(CNc2ccc3c(c2)CCC3)cc1OC | inconclusive: 16.4 µM [activator, single point] |
| O=C(CSc1nnc(Nc2ccccc2F)s1)NC1CCCC1 | inconclusive: 18.3 µM [activator, partial curve] |
| CCN1CCN(c2nc(-c3ccccc3)nc3ccccc23)CC1 | inactive |
| C/C(CC(=O)Nc1ccc(Cl)c(C(F)(F)F)c1)=N\NC(=O)c1cnccn1 | inactive |
